This is an account of results in article doi:10.1101/2025.06.12.659319.

Results are given in words; binding and its absence hold for the method and conditions named. For some assays here: A result given as binding can be weak or reduced; the word gives no strength.

Experiment [1] addresses T1, FITC-ΔNp63α NLSbip peptide (residues 278-302) (human).
T1 sequence (peptide, FITC on the N-terminus): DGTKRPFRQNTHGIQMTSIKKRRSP
The experiment in a line: fluorescence polarisation.

In experiment [2] the target is T2, FITC-ΔNp63α NLS mNLSbip peptide (human).
T2 sequence (peptide, FITC on the N-terminus): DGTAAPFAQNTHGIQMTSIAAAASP
In words: fluorescence polarisation.

In the case of “human IMPα5ΔIBB (importin α5 lacking the IMPβ1 binding domain) (domain or fragment)”, the binding result in experiment [1] is “binds”.

For the substance “mIMPα1ΔIBB (label of the legend of Figure 3B) (domain or fragment)”, in experiment [2], the binding entry is “no binding (tested: 20 μM)”.
